From PubChem BioAssay AID504444 (National Center for Advancing Translational Sciences (NCATS), 2011)
The whole screen tested about 360,000 compounds, of which about 7,500 (2.1%) were called active. Inconclusive results, whose numbers are uncertain, are shown with a selection of clear calls. Calls follow the shape of the dose curve; as a rule, active = well fitted inhibition curve with a large enough effect; inconclusive = small, poorly fitted or top-dose-only effect, or effect the other way; inactive = flat fitted curve, though single readings scatter. Potencies beside an inconclusive call are fits to weak or partial responses and may not hold up.

Test: Nrf2 qHTS screen for inhibitors; also: nearly all actives have a fitted effect of over 60% in size
Conditions: A549 ARE-Fluc reporter, luciferase luminescence, 18-24 h; activity change, negative = inhibition: at 46 µM (top of the series)
Procedure, shortened: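 Quantitative HTS in A549 cells stably bearing an antioxidant response element-firefly luciferase construct. Inhibition of Nrf2-driven transcription was scored by luminescence after 18-24 h of compound exposure at 37 °C.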
% is scaled to controls: 0 for no effect and ±100 for the full control effect; potency is read from the fitted curve at half-maximal effect.

**Q.** For O=C(COc1ccc(Br)cc1)NC(=S)Nc1ccccc1N1CCOCC1, which Potency is on record?
**A.** Its Potency is “inactive”.

**Q.** Which Potency does the source give for Cc1cc(Nc2ccccc2C(=O)O)nc2nc3ccccc3c(=O)n12 here?
**A.** Its Potency is inconclusive: 6.51 µM [falling, single point].

**Q.** For C=Cn1c(C(=O)O)ccc1-c1ccc(OC)cc1, which Potency is on record?
**A.** The Potency was inconclusive: 20.6 µM [activator, single point].

**Q.** Which activity change, negative = inhibition does the source give for Cc1ccc(-n2c(=O)[nH]c3cc(C(=O)NCc4ccccc4)ccc3c2=O)cc1 here?
**A.** The activity change, negative = inhibition was inactive: -5.93% [at 9.27 µM].

**Q.** Which Potency does the source give for COc1ccc(Cl)cc1S(=O)(=O)N1CCN(S(=O)(=O)c2ccc3c(c2)OCCO3)CC1 here?
**A.** The Potency was inconclusive: 23.1 µM [falling, partial curve, poor fit].

**Q.** For Cc1cccc(OCC(=O)Nc2ccc(-c3nc4ccccc4o3)cc2)c1C, which Potency is on record?
**A.** Its Potency is active: 20.6 µM.

**Q.** For Cc1[nH]n(-c2ccc(Cl)cc2)c(=O)c1/C=N/n1c(C)nc2ccccc2c1=O, which Potency is on record?
**A.** Its Potency is inconclusive: 29.1 µM [falling, single point].

**Q.** With COc1ccc(COc2ccccc2C(N)=O)cc1F as the compound, how does the Potency read?
**A.** The Potency was inconclusive: 1.64 µM [activator, full curve].

**Q.** With O=c1ccc(-c2ccccc2)nn1Cc1ccccc1F as the compound, how does the Potency read?
**A.** Its Potency is inconclusive: 29.1 µM [falling, single point].

**Q.** Which Potency does the source give for Cc1nc(NC(=O)c2ccc3c(c2)OCO3)ccc1Br here?
**A.** The Potency was inconclusive: 11.6 µM [activator, partial curve].

**Q.** With Cc1cccc(NC(=O)CCc2ccccc2)c1 as the compound, how does the Potency read?
**A.** Its Potency is inconclusive: 18.4 µM [activator, partial curve].

**Q.** Which Potency does the source give for CN(CC(=O)Nc1ccc(Cl)cc1)c1ccc(S(=O)(=O)N2CCCCC2)cc1[N+](=O)[O-] here?
**A.** The Potency was inconclusive: 29.1 µM [falling, single point].

**Q.** For O=C1[C@@H]2Cc3c([nH]c4ccccc34)C(c3ccccc3)N2C(=O)CN1C1CCN(Cc2ccccc2)CC1 (stereo not given in full), which Potency is on record?
**A.** Its Potency is “inactive”.

**Q.** With COc1cc(OC)c(C(=O)Nc2ccc3ccccc3c2)cc1OC as the compound, how does the Potency read?
**A.** Its Potency is inconclusive: 14.6 µM [activator, partial curve].

**Q.** For Cc1cc(C)c(S(=O)(=O)N/N=C/c2ccc([N+](=O)[O-])o2)c(C)c1, which Potency is on record?
**A.** The Potency was “inactive”.

**Q.** With Cc1ccc(OC(C)C(=O)Nc2ccc3c(c2)n(C)c(=O)n3C)cc1C (stereo not given) as the compound, how does the Potency read?
**A.** Its Potency is inconclusive: 3.26 µM [falling, partial curve].

**Q.** With Cc1ccc(C)c(Nc2nc(N)c3ccccc3n2)c1 as the compound, how does the Potency read?
**A.** Its Potency is inconclusive: 9.2 µM [activator, partial curve].

**Q.** For CC(C)c1ccc2nc(N)sc2c1, which Potency is on record?
**A.** The Potency was inconclusive: 8.2 µM [activator, partial curve].

**Q.** For Fc1cccc(-c2nnn3c2nc(Cl)c2ccccc23)c1, which Potency is on record?
**A.** The Potency was inconclusive: 2.91 µM [activator, full curve, poor fit].

**Q.** With COc1ccc(Cn2cc(C(=O)c3ccc(C)c(C)c3)c(=O)c3ccccc32)cc1 as the compound, how does the Potency read?
**A.** The Potency was inconclusive: 29.1 µM [falling, single point].

**Q.** With CCN(C(=S)NCCOC)c1cccc2ccccc12 as the compound, how does the Potency read?
**A.** Its Potency is inconclusive: 5.8 µM [falling, partial curve, poor fit].

**Q.** For COc1ccc(CNCCC(c2ccc3c(c2)OCO3)c2ccccc2OC)cc1 (stereo not given), which Potency is on record?
**A.** Its Potency is “inactive”.

**Q.** With O=C1C2C3C=CC(C3)C2C(=O)N1c1nc2ccccc2s1 (stereo not given) as the compound, how does the Potency read?
**A.** Its Potency is inconclusive: 16.4 µM [activator, partial curve, poor fit].

**Q.** Which Potency does the source give for COc1cc2c(cc1OC)C(=O)N1[C@H]3c4ccccc4OC[C@@H]3[C@H](c3ccccc3)[C@]1(C)C(=O)N2 here?
**A.** The Potency was inconclusive: 0.58 µM [activator, full curve].

**Q.** Which Potency does the source give for Nc1ncn([C@H]2C[C@H](O)[C@@H](CO)O2)c(=O)n1 here?
**A.** Its Potency is inconclusive: 10.3 µM [activator, partial curve].

**Q.** For Cc1ccc(S(=O)(=O)/N=C2\C=C(Nc3ccc(O)cc3)C(=O)c3ccccc32)cc1, which Potency is on record?
**A.** The Potency was active: 18.4 µM.

**Q.** For CCOc1nc(C#N)nc(N2CCCCC2)n1, which Potency is on record?
**A.** The Potency was active: 16.4 µM.

**Q.** Which Potency does the source give for O=C1CCCN1CC(O)CS(=O)(=O)Cc1ccc(Cl)cc1 (stereo not given) here?
**A.** The Potency was “inactive”.

**Q.** Which Potency does the source give for COc1cc2ncc(C(=O)c3ccc(C)cc3)c(N3CCCCC3)c2cc1OC here?
**A.** The Potency was inconclusive: 29.1 µM [falling, single point].

**Q.** Which Potency does the source give for O=C(Cc1c(Cl)cccc1Cl)Nc1ccncc1 here?
**A.** The Potency was “inactive”.

**Q.** For COc1cccc(CC(=O)N2CCCC(CCC(=O)N3CCN(c4ccccn4)CC3)C2)c1 (stereo not given), which Potency is on record?
**A.** The Potency was inconclusive: 20.6 µM [falling, partial curve, poor fit].

**Q.** For Cc1ccc2nc(NC(=O)c3ccc(N4C(=O)CCC4=O)cc3)sc2c1, which Potency is on record?
**A.** The Potency was inconclusive: 29.1 µM [activator, single point].

**Q.** Which Potency does the source give for CCn1c2ccccc2c2cc(NS(=O)(=O)c3ccccc3C)ccc21 here?
**A.** Its Potency is inconclusive: 23.1 µM [falling, partial curve, poor fit].

**Q.** For O=C(COc1ccccc1)N/N=C/c1ccc2c(c1)OCO2, which Potency is on record?
**A.** The Potency was inconclusive: 32.6 µM [falling, single point].

**Q.** Which Potency does the source give for COc1ccc(N2CCN(Cc3nc4c(c(=O)[nH]c(=O)n4C)n3CC(C)C)CC2)cc1 here?
**A.** Its Potency is inconclusive: 0.731 µM [activator, full curve, poor fit].

**Q.** Which Potency does the source give for COc1ccc(/C=N\NC(=O)c2ccccc2OC)cc1COc1ccccc1C here?
**A.** Its Potency is inconclusive: 6.51 µM [falling, partial curve, poor fit].

**Q.** For C(=C\c1nc(-c2ccccc2)no1)/c1ccccc1, which Potency is on record?
**A.** The Potency was inconclusive: 9.2 µM [activator, partial curve].

**Q.** For COc1ccc(S(=O)(=O)Nc2ccc3c(c2)OCO3)cc1, which Potency is on record?
**A.** The Potency was inconclusive: 3.26 µM [activator, partial curve, poor fit].

**Q.** Which Potency does the source give for N#CCCCSc1nnc(-c2ccccn2)o1 here?
**A.** Its Potency is inconclusive: 16.4 µM [activator, single point].

**Q.** Which Potency does the source give for Cc1ccsc1/C=C1\CCc2ccccc2C1=O here?
**A.** The Potency was inconclusive: 6.51 µM [activator, partial curve].

**Q.** Which Potency does the source give for CCc1ccc(OCCCCCn2ccnc2)cc1 here?
**A.** Its Potency is inconclusive: 29.1 µM [falling, single point].

**Q.** For Cc1cc(C(=O)NC2CC(C)(C)Cc3c2cnn3-c2ccccc2)n(C)n1 (stereo not given), which Potency is on record?
**A.** The Potency was inconclusive: 13 µM [falling, partial curve].

**Q.** Which Potency does the source give for Cc1ccc(NC(=O)CCc2c(C)nn(-c3ccc(N4CCCCC4)nn3)c2C)cc1C here?
**A.** Its Potency is inconclusive: 3.26 µM [activator, full curve].

**Q.** With COc1cc(OC)c(C2=NOC(C(=O)N3CCCc4ccccc43)C2)cc1Cl (stereo not given) as the compound, how does the Potency read?
**A.** Its Potency is inconclusive: 25.9 µM [falling, partial curve, poor fit].

**Q.** Which Potency does the source give for Cc1sc2ncnc(SCC(=O)NC(C)C(C)C)c2c1C (stereo not given) here?
**A.** The Potency was inconclusive: 6.51 µM [falling, partial curve].

**Q.** For Cc1ccc(S(=O)(=O)c2nnn3c2nc(NCCc2ccccc2)c2sccc23)cc1, which Potency is on record?
**A.** Its Potency is active: 20.6 µM.

**Q.** Which Potency does the source give for O=C(O)C1C2C=CC(C2)C1C(=O)NCc1ccc(Cl)cc1Cl (stereo not given) here?
**A.** The Potency was inconclusive: 11.6 µM [falling, partial curve, poor fit].

**Q.** Which Potency does the source give for COc1ccccc1C(=O)Nc1ccc2c(c1)n(C)c(=O)n2C here?
**A.** Its Potency is inconclusive: 9.2 µM [falling, partial curve, poor fit].

**Q.** Which Potency does the source give for Cc1oc2ccc(O)c(CN3CCOCC3)c2c1C(=O)c1ccc(Cl)cc1 here?
**A.** Its Potency is inconclusive: 0.116 µM [falling, full curve, poor fit].

**Q.** With O=[N+]([O-])c1cccc(NC(=S)NCc2ccncc2)c1 as the compound, how does the Potency read?
**A.** Its Potency is “inactive”.

**Q.** With C[C@@H](NC(=O)OC(C)(C)C)c1nnc(S(=O)(=O)Cc2ccccc2)o1 as the compound, how does the Potency read?
**A.** Its Potency is inconclusive: 23.1 µM [falling, single point].

**Q.** For COc1ccc2[nH]cc(CCN3C(=O)c4ccc(C(=O)O)cc4C3=O)c2c1, which Potency is on record?
**A.** Its Potency is inconclusive: 9.2 µM [activator, partial curve].

**Q.** For O=C(CSc1nc2ccccc2o1)NCc1n[nH]c(=O)c2ccccc12, which Potency is on record?
**A.** The Potency was inconclusive: 2.91 µM [falling, partial curve, poor fit].

**Q.** Which Potency does the source give for COc1cccc(C=NN2CCCCCC2)c1OC here?
**A.** The Potency was inconclusive: 8.2 µM [activator, partial curve].

**Q.** For O=C(Nc1ccc(Cl)cc1)N1CCCN(c2ccc(C(F)(F)F)cc2[N+](=O)[O-])CC1, which Potency is on record?
**A.** Its Potency is inconclusive: 20.6 µM [falling, single point].

**Q.** With O=C(NNC(=O)c1cc([N+](=O)[O-])ccc1Cl)c1cccs1 as the compound, how does the Potency read?
**A.** Its Potency is inconclusive: 20.6 µM [activator, partial curve, poor fit].

**Q.** Which Potency does the source give for O=C(CN1CCN(S(=O)(=O)c2ccc(F)c(Cl)c2)CC1)N1CCc2ccccc2C1 here?
**A.** Its Potency is “inactive”.

**Q.** With O=C(Nc1cccn(Cc2c(Cl)cccc2Cl)c1=O)c1c(Cl)cccc1Cl as the compound, how does the Potency read?
**A.** Its Potency is inconclusive: 23.1 µM [falling, partial curve, poor fit].

**Q.** Which Potency does the source give for O=C(c1ccc(Br)cc1)C(CN1CCOCC1)c1ccccc1 (stereo not given) here?
**A.** Its Potency is “inactive”.

**Q.** For COc1ccc(N2CC(C(=O)Nc3ccc(S(=O)(=O)Nc4nccs4)cc3)CC2=O)c(OC)c1 (stereo not given), which Potency is on record?
**A.** Its Potency is inconclusive: 0.82 µM [falling, partial curve, poor fit].

**Q.** Which Potency does the source give for CCOc1ccc(N(C)S(=O)(=O)c2cc(-c3cc(C)no3)ccc2C(C)C)cc1 here?
**A.** Its Potency is inconclusive: 29.1 µM [falling, single point].

**Q.** For COc1ccc(C2=C(N3CCN(c4cccc(C)c4)C(C)C3)c3ccccc3C2=O)cc1 (stereo not given), which Potency is on record?
**A.** The Potency was inconclusive: 4.61 µM [activator, partial curve, poor fit].

**Q.** For CCc1ccc(-n2c(=S)sc3c(=O)n(-c4ccccc4C)c(SCC(=O)O)nc32)cc1, which Potency is on record?
**A.** Its Potency is inconclusive: 7.31 µM [falling, partial curve, poor fit].

**Q.** Which Potency does the source give for O=c1[nH]c(/C(Cl)=C/c2c(F)cccc2Cl)nc2cc(Cl)ccc12 here?
**A.** Its Potency is inconclusive: 5.8 µM [falling, partial curve].

**Q.** With COc1ccc(-c2ccc(SCC(=O)c3ccccc3)nn2)cc1OC as the compound, how does the Potency read?
**A.** The Potency was inconclusive: 29.1 µM [activator, single point].
